{"source": "PubChem BioAssay AID504808 (Drosophila RNAi Screening Center, 2011)", "assay": "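Chromatin factors that keep E2F targets switched off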 (primary screen)", "cells": "Drosophila S2 cells", "knock-down reagent": "long dsRNA against Drosophila genes", "detection": "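Firefly luciferase driven by E2F sites, normalised to Renilla luciferase on the same minimal promoter, measured by plate reader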", "direction": "E2F firefly: higher = more E2F reporter activity; Renilla normaliser: higher = more normaliser reporter signal", "active means": "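Called active if the normalised E2F reporter went up by over 50%; the cutoff is arbitrary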", "note": "The screen tested about 21,000 reagents; shown is a random part of those with a known target gene and a result. Of all reagents, 18 (0.084%) are marked active. 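Raw counts without plate normalisation, one of two replicates; the ratio scores behind the calls were not deposited.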 A plus sign joins genes that one reagent is predicted to hit. No sequences are given here. Not stated in the record: the amount of reagent, the time to read-out."}
{"target":"IKKbeta","dsRNA":"DRSC16714","E2F firefly, rep 1":74997,"Renilla normaliser, rep 1":4004,"Outcome":"inactive"}
{"target":"CG42245 + MEP-1","dsRNA":"DRSC07993","E2F firefly, rep 1":1.43e5,"Renilla normaliser, rep 1":3975,"Outcome":"inactive"}
{"target":"CG42245 + MEP-1","dsRNA":"DRSC08274","E2F firefly, rep 1":78840,"Renilla normaliser, rep 1":3618,"Outcome":"inactive"}
{"target":"CG18808","dsRNA":"DRSC08539","E2F firefly, rep 1":1.02e5,"Renilla normaliser, rep 1":4316,"Outcome":"inactive"}
{"target":"Mat89Ba","dsRNA":"DRSC14540","E2F firefly, rep 1":75397,"Renilla normaliser, rep 1":3488,"Outcome":"inactive"}
{"target":"CG14891","dsRNA":"DRSC15013","E2F firefly, rep 1":72077,"Renilla normaliser, rep 1":3165,"Outcome":"inactive"}
{"target":"Mal-A2","dsRNA":"DRSC07460","E2F firefly, rep 1":1.31e5,"Renilla normaliser, rep 1":4629,"Outcome":"inactive"}
{"target":"CG2839","dsRNA":"DRSC00544","E2F firefly, rep 1":1.64e5,"Renilla normaliser, rep 1":5853,"Outcome":"inactive"}
{"target":"UBL3","dsRNA":"DRSC20298","E2F firefly, rep 1":2.24e5,"Renilla normaliser, rep 1":7306,"Outcome":"inactive"}
{"target":"CG8379","dsRNA":"DRSC16414","E2F firefly, rep 1":1.22e5,"Renilla normaliser, rep 1":5659,"Outcome":"inactive"}
{"target":"DAT","dsRNA":"DRSC07394","E2F firefly, rep 1":1.50e5,"Renilla normaliser, rep 1":5840,"Outcome":"inactive"}
{"target":"ND-B17.2","dsRNA":"DRSC00577","E2F firefly, rep 1":1.65e5,"Renilla normaliser, rep 1":5362,"Outcome":"inactive"}

Laid out differently: entries from further up
| target | dsRNA | E2F firefly, rep 1 | Renilla normaliser, rep 1 | Outcome |
| --- | --- | --- | --- | --- |
| CG42245 + MEP-1 | DRSC08274 | 78840 | 3618 | inactive |
| CG18808 | DRSC08539 | 1.02e5 | 4316 | inactive |
